This experiment concerns S. aureus F-597. The experiment is described as follows: Antibacterial activity (MIC), S. aureus F-597 (methicillin-resistant). The format is cell-based. As to conditions: Staphylococcus aureus, F597, 20 h. The protocol:
According to the standard method of Japan Society of Chemotherapy [CHEMOTHERAPY, vol. 29, No. 1, pages 76-79 (1981)], a loopful of a cell suspension obtained by culturing in Mueller Hinton broth (mfd. by Difco) at 37° C. for 20 hours and adjusted to a concentration of 10^6 cells/plate (10^8 cells/ml) was inoculated into a Mueller Hinton agar medium (mfd. by Difco) containing the test compound, followed by incubation at 37° C. for 20 hours. […] In Table 1, *1 to *4 denote the following strains:
3: methicillin-resistant S. aureus

In brackets after ≈: the same amount, converted by molar mass.

In the case of `O=C(O)c1cn(C2CC2)c2cc(N3CCNCC3)c(F)cc2c1=O` [j, 1-Cyclopropyl-6-fluoro-7-(1-piperazinyl)-1,4-dihydro-4-oxoquinoline-3-carboxylic acid, reference compound], the MIC was 3.13 µg/mL (≈ 9.45 µM).
